Data: article PMC4462998
Results are given in words; binding and its absence hold for the method and conditions named. Binding seen in cells or lysates may run through a third protein.

T1: PBP1A (Escherichia coli) (UniProt P02918)
T1 sequence: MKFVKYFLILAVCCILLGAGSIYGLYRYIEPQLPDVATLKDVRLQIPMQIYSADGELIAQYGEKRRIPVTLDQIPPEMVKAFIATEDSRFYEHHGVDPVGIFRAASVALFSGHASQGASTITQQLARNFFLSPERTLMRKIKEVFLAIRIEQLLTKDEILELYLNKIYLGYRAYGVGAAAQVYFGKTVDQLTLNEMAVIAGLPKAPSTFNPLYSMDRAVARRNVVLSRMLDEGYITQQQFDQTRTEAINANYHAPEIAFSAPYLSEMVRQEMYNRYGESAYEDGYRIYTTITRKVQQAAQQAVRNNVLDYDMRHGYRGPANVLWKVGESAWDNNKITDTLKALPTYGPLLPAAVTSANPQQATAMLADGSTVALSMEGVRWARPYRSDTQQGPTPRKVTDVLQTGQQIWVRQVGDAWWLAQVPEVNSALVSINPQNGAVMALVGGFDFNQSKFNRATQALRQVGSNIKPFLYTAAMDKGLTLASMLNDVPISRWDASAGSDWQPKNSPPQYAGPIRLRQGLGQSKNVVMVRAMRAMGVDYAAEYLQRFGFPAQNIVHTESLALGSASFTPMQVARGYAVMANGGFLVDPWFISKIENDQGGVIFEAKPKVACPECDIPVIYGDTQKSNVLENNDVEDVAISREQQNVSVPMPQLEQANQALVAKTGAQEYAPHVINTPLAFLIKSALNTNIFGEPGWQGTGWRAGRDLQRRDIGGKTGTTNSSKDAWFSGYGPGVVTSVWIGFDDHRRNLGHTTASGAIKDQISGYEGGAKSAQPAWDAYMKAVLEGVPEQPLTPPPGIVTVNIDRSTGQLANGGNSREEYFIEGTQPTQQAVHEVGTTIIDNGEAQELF


Experiments:
PBP1A (Escherichia coli) = biological target: T1, PBP1A (Escherichia coli); assay: FRET or BRET; in cell FRET assay with the fluorescent labeled proteins (Alexeeva et al., 2010); details in the Supplementary information
PBP1B (Escherichia coli) = PBP1B (Escherichia coli) (UniProt P02919); assay: as above

| binding (PBP1A (Escherichia coli)) | binding (PBP1B (Escherichia coli)) | Binder |
| --- | --- | --- |
| no binding |  | PBP1A (enzyme, UniProt P02918 1-850) MKFVKYFLILAVCCILLGAGSIYGLYRYIEPQLPDVATLKDVRLQIPMQIYSADGELIAQYGEKRRIPVTLDQIPPEMVKAFIATEDSRFYEHHGVDPVGIFRAASVALFSGHASQGASTITQQLARNFFLSPERTLMRKIKEVFLAIRIEQLLTKDEILELYLNKIYLGYRAYGVGAAAQVYFGKTVDQLTLNEMAVIAGLPKAPSTFNPLYSMDRAVARRNVVLSRMLDEGYITQQQFDQTRTEAINANYHAPEIAFSAPYLSEMVRQEMYNRYGESAYEDGYRIYTTITRKVQQAAQQAVRNNVLDYDMRHGYRGPANVLWKVGESAWDNNKITDTLKALPTYGPLLPAAVTSANPQQATAMLADGSTVALSMEGVRWARPYRSDTQQGPTPRKVTDVLQTGQQIWVRQVGDAWWLAQVPEVNSALVSINPQNGAVMALVGGFDFNQSKFNRATQALRQVGSNIKPFLYTAAMDKGLTLASMLNDVPISRWDASAGSDWQPKNSPPQYAGPIRLRQGLGQSKNVVMVRAMRAMGVDYAAEYLQRFGFPAQNIVHTESLALGSASFTPMQVARGYAVMANGGFLVDPWFISKIENDQGGVIFEAKPKVACPECDIPVIYGDTQKSNVLENNDVEDVAISREQQNVSVPMPQLEQANQALVAKTGAQEYAPHVINTPLAFLIKSALNTNIFGEPGWQGTGWRAGRDLQRRDIGGKTGTTNSSKDAWFSGYGPGVVTSVWIGFDDHRRNLGHTTASGAIKDQISGYEGGAKSAQPAWDAYMKAVLEGVPEQPLTPPPGIVTVNIDRSTGQLANGGNSREEYFIEGTQPTQQAVHEVGTTIIDNGEAQELF |
| no binding | no binding | PBP1B (enzyme, UniProt P02919 1-844) MAGNDREPIGRKGKPTRPVKQKVSRRRYEDDDDYDDYDDYEDEEPMPRKGKGKGKGRKPRGKRGWLWLLLKLAIVFAVLIAIYGVYLDQKIRSRIDGKVWQLPAAVYGRMVNLEPDMTISKNEMVKLLEATQYRQVSKMTRPGEFTVQANSIEMIRRPFDFPDSKEGQVRARLTFDGDHLATIVNMENNRQFGFFRLDPRLITMISSPNGEQRLFVPRSGFPDLLVDTLLATEDRHFYEHDGISLYSIGRAVLANLTAGRTVQGASTLTQQLVKNLFLSSERSYWRKANEAYMALIMDARYSKDRILELYMNEVYLGQSGDNEIRGFPLASLYYFGRPVEELSLDQQALLVGMVKGASIYNPWRNPKLALERRNLVLRLLQQQQIIDQELYDMLSARPLGVQPRGGVISPQPAFMQLVRQELQAKLGDKVKDLSGVKIFTTFDSVAQDAAEKAAVEGIPALKKQRKLSDLETAIVVVDRFSGEVRAMVGGSEPQFAGYNRAMQARRSIGSLAKPATYLTALSQPKIYRLNTWIADAPIALRQPNGQVWSPQNDDRRYSESGRVMLVDALTRSMNVPTVNLGMALGLPAVTETWIKLGVPKDQLHPVPAMLLGALNLTPIEVAQAFQTIASGGNRAPLSALRSVIAEDGKVLYQSFPQAERAVPAQAAYLTLWTMQQVVQRGTGRQLGAKYPNLHLAGKTGTTNNNVDTWFAGIDGSTVTITWVGRDNNQPTKLYGASGAMSIYQRYLANQTPTPLNLVPPEDIADMGVDYDGNFVCSGGMRILPVWTSDPQSLCQQSEMQQQPSGNPFDQSSQPQQQPQQQPAQQEQKDSDGVAGWIKDMFGSN |
